Results are given in words; binding and its absence hold for the method and conditions named. Binding seen in cells or lysates may run through a third protein. Some results given as binding are weak or reduced against the parent protein; the word gives no strength.
Target: T1, ubiquitin-specific peptidases 29 (USP29) (human (endogenous in CRC cells)) (UniProt Q9HBJ7)
T1 sequence: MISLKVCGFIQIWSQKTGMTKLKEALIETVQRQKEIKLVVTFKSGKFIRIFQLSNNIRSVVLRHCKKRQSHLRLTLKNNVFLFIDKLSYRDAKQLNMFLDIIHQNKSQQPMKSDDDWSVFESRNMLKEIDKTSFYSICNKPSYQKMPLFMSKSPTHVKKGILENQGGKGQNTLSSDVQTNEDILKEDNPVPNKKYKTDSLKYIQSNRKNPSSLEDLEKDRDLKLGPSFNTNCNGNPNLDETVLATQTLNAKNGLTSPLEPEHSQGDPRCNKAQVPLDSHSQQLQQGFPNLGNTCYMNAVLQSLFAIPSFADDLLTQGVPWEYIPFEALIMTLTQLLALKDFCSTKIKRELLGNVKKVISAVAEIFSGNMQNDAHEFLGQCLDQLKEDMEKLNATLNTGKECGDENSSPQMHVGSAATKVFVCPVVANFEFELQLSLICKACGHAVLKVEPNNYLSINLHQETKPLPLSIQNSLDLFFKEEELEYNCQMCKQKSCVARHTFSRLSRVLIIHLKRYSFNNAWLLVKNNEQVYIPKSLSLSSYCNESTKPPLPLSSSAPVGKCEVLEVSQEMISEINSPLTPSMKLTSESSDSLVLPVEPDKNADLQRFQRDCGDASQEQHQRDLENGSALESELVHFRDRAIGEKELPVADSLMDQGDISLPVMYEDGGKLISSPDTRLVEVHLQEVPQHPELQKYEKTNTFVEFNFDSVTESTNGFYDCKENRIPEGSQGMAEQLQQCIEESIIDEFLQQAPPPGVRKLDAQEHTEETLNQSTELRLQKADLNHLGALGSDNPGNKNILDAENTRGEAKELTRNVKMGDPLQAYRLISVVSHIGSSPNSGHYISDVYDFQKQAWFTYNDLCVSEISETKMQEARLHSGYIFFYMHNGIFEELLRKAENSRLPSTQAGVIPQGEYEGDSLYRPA
Assay: co-IP; total protein of CRC cells in RIPA buffer; supernatant incubated with protein A+G agarose beads for 4 h at 4 C with USP29 antibody (IgG antibody as control); precipitate analysed by Western blotting

By UniProt entry, the sequences of proteins in these tests, tags left out.
UniProt Q69YN4: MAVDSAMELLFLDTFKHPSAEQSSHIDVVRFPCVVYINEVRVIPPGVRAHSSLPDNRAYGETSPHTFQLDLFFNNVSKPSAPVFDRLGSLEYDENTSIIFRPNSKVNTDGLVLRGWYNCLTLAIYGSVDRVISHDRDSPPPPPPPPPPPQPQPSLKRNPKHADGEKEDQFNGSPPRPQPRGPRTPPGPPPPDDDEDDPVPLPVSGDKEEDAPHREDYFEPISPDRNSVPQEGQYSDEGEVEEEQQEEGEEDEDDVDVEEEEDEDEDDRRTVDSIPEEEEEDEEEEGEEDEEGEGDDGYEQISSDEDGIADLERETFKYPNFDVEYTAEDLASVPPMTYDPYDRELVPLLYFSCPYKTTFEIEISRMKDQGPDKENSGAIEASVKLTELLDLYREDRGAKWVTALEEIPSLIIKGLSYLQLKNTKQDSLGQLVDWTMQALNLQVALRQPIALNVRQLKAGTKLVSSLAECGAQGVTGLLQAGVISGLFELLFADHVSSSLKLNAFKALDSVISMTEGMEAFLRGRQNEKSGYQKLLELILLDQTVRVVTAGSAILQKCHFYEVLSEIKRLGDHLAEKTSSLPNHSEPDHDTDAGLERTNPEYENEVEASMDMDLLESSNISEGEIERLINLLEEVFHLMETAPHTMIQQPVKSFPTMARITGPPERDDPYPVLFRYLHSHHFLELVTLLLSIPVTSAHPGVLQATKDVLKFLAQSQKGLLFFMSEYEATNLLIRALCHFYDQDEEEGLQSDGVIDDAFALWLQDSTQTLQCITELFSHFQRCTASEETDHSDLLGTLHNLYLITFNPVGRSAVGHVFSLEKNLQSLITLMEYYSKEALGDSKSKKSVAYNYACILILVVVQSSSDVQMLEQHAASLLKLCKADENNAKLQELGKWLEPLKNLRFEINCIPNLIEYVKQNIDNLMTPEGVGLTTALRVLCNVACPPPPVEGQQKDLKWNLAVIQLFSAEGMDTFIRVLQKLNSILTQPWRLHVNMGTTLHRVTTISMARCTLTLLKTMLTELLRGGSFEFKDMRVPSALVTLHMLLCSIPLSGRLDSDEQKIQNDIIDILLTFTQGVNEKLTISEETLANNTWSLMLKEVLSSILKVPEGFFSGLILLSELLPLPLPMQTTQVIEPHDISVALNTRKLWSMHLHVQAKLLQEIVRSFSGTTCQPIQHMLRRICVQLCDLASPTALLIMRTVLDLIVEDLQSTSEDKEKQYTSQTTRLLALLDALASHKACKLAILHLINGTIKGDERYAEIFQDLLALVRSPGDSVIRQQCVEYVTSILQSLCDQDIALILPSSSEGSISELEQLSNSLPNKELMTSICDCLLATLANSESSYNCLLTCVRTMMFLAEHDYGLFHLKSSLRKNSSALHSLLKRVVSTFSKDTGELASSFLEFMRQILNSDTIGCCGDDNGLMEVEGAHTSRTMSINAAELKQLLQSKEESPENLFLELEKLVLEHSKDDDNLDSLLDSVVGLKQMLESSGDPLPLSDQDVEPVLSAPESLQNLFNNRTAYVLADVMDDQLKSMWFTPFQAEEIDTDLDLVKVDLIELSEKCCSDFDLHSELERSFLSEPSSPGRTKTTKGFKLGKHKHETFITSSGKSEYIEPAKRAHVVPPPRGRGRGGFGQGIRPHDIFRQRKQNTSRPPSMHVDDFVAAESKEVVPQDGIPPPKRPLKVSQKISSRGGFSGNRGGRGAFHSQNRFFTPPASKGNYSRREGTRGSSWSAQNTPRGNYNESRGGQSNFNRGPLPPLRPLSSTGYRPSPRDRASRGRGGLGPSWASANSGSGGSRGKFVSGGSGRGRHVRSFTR

- binding: binds
Substance: Vir-like m6A methyltransferase associated (VIRMA/KIAA1429) (from UniProt Q69YN4 1-1812)

From article PMC10171440
